In US20180237508A1 one finds binding data, which are given here for one molecule.

Amino acid sequences for entries named in this document (tags omitted). Residues count along the entry.
UniProt P05787, residues 1-393: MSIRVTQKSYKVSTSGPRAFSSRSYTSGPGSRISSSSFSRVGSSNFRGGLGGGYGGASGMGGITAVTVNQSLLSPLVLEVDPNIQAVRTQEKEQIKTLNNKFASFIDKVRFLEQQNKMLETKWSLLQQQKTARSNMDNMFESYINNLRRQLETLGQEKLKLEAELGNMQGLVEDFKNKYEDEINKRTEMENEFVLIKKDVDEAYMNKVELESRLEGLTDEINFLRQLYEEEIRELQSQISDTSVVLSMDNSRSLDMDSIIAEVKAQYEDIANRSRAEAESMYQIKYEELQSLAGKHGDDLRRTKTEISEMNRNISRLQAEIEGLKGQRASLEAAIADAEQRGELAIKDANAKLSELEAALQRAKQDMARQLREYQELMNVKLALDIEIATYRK

Results are given in words; binding and its absence hold for the method and conditions named. Some results given as binding are weak or reduced against the parent protein; the word gives no strength.

The target in this test is C-terminal truncated form of human CK8 protein (CK8-C) (human) (UniProt P05787). Briefly: western blot, Isreco-1 lysate, mD-A10 1 ug/mL. In general terms: A western blot detects proteins with antibodies after separation by electrophoresis.

B1: Murine monoclonal antibody D-A10 (antibody, V domains shown)
VH: EVQLLETGGGLVQPGGSRGLSCEGSGFTFSGFWMSWVRQTPGKTLEWIGDINSDGSAIKYAPSIKDRFTIFRDNDKSTLYLQMSNVRSEDTATYFCIAHYSGGGFAYWGQGTSVTVSS
VL: NIVMTQAAPSVPVTPGESVSISCRSSKSLLYSNGNTYLYWFLQRPGQSPQRLIYYMSNLASGVPDRFSGRGSGTDFTLRISRVEAEDVGVYYCMQSLEYPFTFGGGTKLEIK
Turning to B1, the binding result is recorded as “binds”.
